Measurements reported in publication PMC9151520 (Archives of Toxicology, 2022).
Where “and” joins values, the source holds several entries; their conditions need not be identical. Equal values may be shown once. Where a name gives a salt, the structure may show the parent alone. Read-outs that look alike come from different tables or passages of the source.

What was measured:
[1] = tested on: p53 signaling (p53RE-bla HCT-116 cells); assay: cells; assay type: cell-based; details: Homo sapiens
[2] = tested on: p53RE-bla HCT-116 cells
[3] = tested on: p53RE-bla HCT-116 cells; assay: cells; details: Homo sapiens

CSc1ccc2c(c1)N(CCC1CCCCN1C)c1ccccc1S2 (stereo not drawn) [Thioridazine hydrochloride]
EC50 ([1]; HCT-116, read-out: EC50, p53 activation, cherry pick confirmation): 50 µM | EC50 ([1]; HCT-116, read-out: EC50, p53 activation, primary screening): 51.1 µM | EC50 ([2]; read-out: EC50, viability, cherry pick confirmation): 37.6 µM and 40.6 µM | EC50 ([2]; read-out: EC50, viability, primary screening): 47.6 µM and 41.8 µM | EC50 ([3]; HCT-116, read-out: EC50, viability, cherry pick confirmation): 37 µM | EC50 ([3]; HCT-116, read-out: EC50, viability, primary screening): 38.9 µM
